Test results published in PMC7862700.
The list shows a part of the results, in another mix than the full data. For part of these data: At the low end of the ranking the order means little. The list shows a part of the results. For part of these data: The exact form of the protein is not confirmed.

Chains of the proteins cited; added tags and fusions are not shown. Lines headed by an entry give the natural chain unless they say otherwise; changes in a name come on top.
UniProt Q00613: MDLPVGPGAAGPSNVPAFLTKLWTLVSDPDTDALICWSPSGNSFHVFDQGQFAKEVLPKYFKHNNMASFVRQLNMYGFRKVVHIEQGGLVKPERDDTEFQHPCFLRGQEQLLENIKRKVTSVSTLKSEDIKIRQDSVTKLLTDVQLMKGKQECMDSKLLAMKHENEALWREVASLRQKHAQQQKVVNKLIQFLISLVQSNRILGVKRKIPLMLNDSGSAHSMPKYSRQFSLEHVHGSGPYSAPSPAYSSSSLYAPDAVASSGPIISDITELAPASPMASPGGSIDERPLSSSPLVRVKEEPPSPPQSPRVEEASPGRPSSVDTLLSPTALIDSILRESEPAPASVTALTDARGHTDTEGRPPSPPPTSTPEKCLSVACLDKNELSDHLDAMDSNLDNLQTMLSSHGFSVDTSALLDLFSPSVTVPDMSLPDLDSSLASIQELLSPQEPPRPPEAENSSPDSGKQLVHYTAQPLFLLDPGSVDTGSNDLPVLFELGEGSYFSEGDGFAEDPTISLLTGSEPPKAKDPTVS

Legend:
HSF1 = HSF1 (UniProt Q00613); experiment: DAPPL (digital affinity profiling via proximity ligation, sequencing); conditions: 10 mM Tris-HCl pH 7.5, 50 mM NaCl, 1 mM DTT, 4% glycerol, room temperature, 30 min; GST-TFs on glutathione beads, 16-mer random dsDNA library, 0.1% …; high values mean tight binding; double strand, one strand shown; scale: fold enrichment (6-mer frequency, TF over GST control)
ELF2 = biological target: T1, ELF2 (UniProt Q15723); experiment: as above; conditions: 10 mM Tris-HCl pH 7.5, 50 mM NaCl, 1 mM DTT, 4% glycerol, room temperature, 30 min; GST-TFs on glutathione beads, 16-mer random dsDNA library, 0.1% …; high values mean tight binding; double strand, one strand shown; scale: fold enrichment (6-mer frequency, TF over GST control)
T1 sequence: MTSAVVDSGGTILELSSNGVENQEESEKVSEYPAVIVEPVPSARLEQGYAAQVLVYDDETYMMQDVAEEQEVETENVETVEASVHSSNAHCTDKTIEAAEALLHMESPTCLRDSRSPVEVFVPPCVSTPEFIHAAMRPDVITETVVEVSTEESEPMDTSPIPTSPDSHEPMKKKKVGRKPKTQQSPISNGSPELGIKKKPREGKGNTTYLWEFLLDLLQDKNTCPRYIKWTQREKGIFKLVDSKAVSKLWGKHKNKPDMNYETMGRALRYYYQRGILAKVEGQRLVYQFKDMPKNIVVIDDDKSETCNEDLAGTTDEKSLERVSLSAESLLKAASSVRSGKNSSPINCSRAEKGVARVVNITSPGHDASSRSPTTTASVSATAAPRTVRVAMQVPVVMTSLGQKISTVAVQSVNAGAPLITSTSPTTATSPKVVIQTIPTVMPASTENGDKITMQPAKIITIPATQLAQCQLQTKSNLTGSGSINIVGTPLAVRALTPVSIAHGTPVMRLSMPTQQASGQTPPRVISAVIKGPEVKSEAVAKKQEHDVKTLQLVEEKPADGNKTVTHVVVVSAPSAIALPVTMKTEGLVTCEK

Row | Sequence | binding signal (HSF1) | binding signal (ELF2)
1 | TATCAG | 1.11 | 1.06
2 | ATCCCT | 1.64 | 1.21
3 | TCACAG | 0.985 | 1.06
4 | AGCAGC | 0.981 | 1.13
5 | CGCTAC | 0.881 | 1.19
6 | CTGTCA | 0.941 | 1.06
